PubChem BioAssay AID652243 | Drosophila RNAi Screening Center, 2013
Assay: 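Knock-downs that decrease or increase androgen receptor reporter signal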 (primary screen). Cells: Drosophila S2R+ cells. Reagents: long dsRNA against Drosophila genes. Duration: 72 h (48 h, then 24 h hormone). Challenge: synthetic androgen R1881 at 10 nM for 24 h. Measurement: 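Firefly light from an androgen-responsive reporter and Renilla control light per well, raw and unnormalised, for each of two replicates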. Direction: firefly reporter light: higher = more light from androgen-responsive reporter; Renilla control light: higher = more constitutive control signal (cell number, transfection). Call rule: 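Hit when the log firefly-to-Renilla ratio dropped or increased by a fixed fold versus the mean of GFP or LacZ controls across duplicate plates; lowering cut given as 1.5 and as 3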. Meaning of the calls: active = hit: reporter lowered or raised; inactive = no hit.
The screen tested about 24,000 reagents; below is an unselected part of those with a known target gene and a result. In the full data, 246 (1%) were called active. 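Plates not normalised; calls are printed but the firefly/Renilla ratio behind them is not deposited; fold cut for lowering reported inconsistently.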 The raw values are shown without normalisation. A number with no mark means an inactive call. Reagents against one gene are numbered here. Not stated in the record: the amount of reagent.

| target gene | reagent | firefly reporter light, replicate 1 | firefly reporter light, replicate 2 | Renilla control light, replicate 1 | Renilla control light, replicate 2 |
| --- | --- | --- | --- | --- | --- |
| CG8343 | 1 | 1.14e6 | 6.72e5 | 1.81e6 | 2.18e6 |
| CG8343 | 2 | 2.10e5 | 2.26e5 | 4.41e5 | 5.25e5 |
| Prosbeta5R2 (Proteasome beta5 subunit-related 2) | 1 | 2.55e5 | 2.55e5 | 6.06e5 | 6.42e5 |
| Prosbeta5R2 (Proteasome beta5 subunit-related 2) | 2 | 8.55e5 | 8.67e5 | 1.85e6 | 1.95e6 |
| CG13862 | 1 | 4.43e5 | 4.55e5 | 3.36e6 | 3.88e6 |
| mtTFB2 (mitochondrial transcription factor B2) | 1 | 66077 | 74150 | 1.34e6 | 1.19e6 |
| CG13559 | 1 | 3.39e5 | 2.55e5 | 2.26e6 | 1.91e6 |
| Agpat1 (1-Acylglycerol-3-phosphate O-acyltransferase 1) | 1 | 1.77e5 (active) | 1.45e5 | 2.48e6 | 2.61e6 |
| Agpat1 (1-Acylglycerol-3-phosphate O-acyltransferase 1) | 2 | 4.52e5 | 5.40e5 | 4.23e6 | 4.30e6 |
| whip (whipple) | 1 | 7.74e5 | 7.85e5 | 2.15e6 | 2.12e6 |
| vis (vismay) | 1 | 2.81e5 | 3.05e5 | 7.27e5 | 7.54e5 |
| CG12470 | 1 | 2.49e5 | 3.23e5 | 3.10e6 | 3.11e6 |
| Obp57a (Odorant-binding protein 57a) | 1 | 9.84e5 | 8.46e5 | 2.23e6 | 1.51e6 |
| Obp57a (Odorant-binding protein 57a) | 2 | 5.63e5 | 4.23e5 | 4.47e5 | 5.85e5 |
| CheB38a (Chemosensory protein B 38a) | 1 | 4.39e5 | 4.85e5 | 2.43e6 | 3.22e6 |
| CheB38a (Chemosensory protein B 38a) | 2 | 4.68e5 | 3.30e5 | 1.44e6 | 1.62e6 |
| CG9691 | 1 | 2.95e5 | 4.58e5 | 3.12e6 | 3.01e6 |
| CG8237 | 1 | 7.85e5 | 7.56e5 | 1.22e6 | 1.22e6 |
| CG8237 | 2 | 5.22e5 | 4.98e5 | 6.85e5 | 5.67e5 |

7 entries already listed, sorted by “Renilla control light, replicate 2”, descending:
| target gene | reagent | firefly reporter light, replicate 1 | firefly reporter light, replicate 2 | Renilla control light, replicate 1 | Renilla control light, replicate 2 |
| --- | --- | --- | --- | --- | --- |
| CheB38a (Chemosensory protein B 38a) | 1 | 4.39e5 | 4.85e5 | 2.43e6 | 3.22e6 |
| CG12470 | 1 | 2.49e5 | 3.23e5 | 3.10e6 | 3.11e6 |
| whip (whipple) | 1 | 7.74e5 | 7.85e5 | 2.15e6 | 2.12e6 |
| CheB38a (Chemosensory protein B 38a) | 2 | 4.68e5 | 3.30e5 | 1.44e6 | 1.62e6 |
| Obp57a (Odorant-binding protein 57a) | 1 | 9.84e5 | 8.46e5 | 2.23e6 | 1.51e6 |
| vis (vismay) | 1 | 2.81e5 | 3.05e5 | 7.27e5 | 7.54e5 |
| Obp57a (Odorant-binding protein 57a) | 2 | 5.63e5 | 4.23e5 | 4.47e5 | 5.85e5 |

Next reagents:
| target gene | reagent | firefly reporter light, replicate 1 | firefly reporter light, replicate 2 | Renilla control light, replicate 1 | Renilla control light, replicate 2 |
| --- | --- | --- | --- | --- | --- |
| CG10336 | 1 | 1.32e6 | 1.08e6 | 1.28e6 | 1.28e6 |
| CG7387 | 1 | 7.04e5 | 8.11e5 | 1.20e6 | 1.26e6 |
| CG14556 | 1 | 1.80e5 | 1.70e5 | 2.27e6 | 2.92e6 |
| Sb (Stubble) | 1 | 2.15e5 | 1.53e5 | 2.23e6 | 1.79e6 |
| Sb (Stubble) | 2 | 4.38e5 | 5.77e5 | 1.57e6 | 1.37e6 |
| Mitf | 1 | 3.88e5 | 3.60e5 | 5.69e6 | 3.97e6 |
| Mitf | 2 | 3.88e5 | 3.63e5 | 2.76e6 | 2.16e6 |
| Mitf | 3 | 7.38e5 | 8.78e5 | 1.31e6 | 1.82e6 |
| CG8547 | 1 | 7.64e5 | 8.26e5 | 2.07e6 | 2.28e6 |
| CG8547 | 2 | 3.94e5 | 4.05e5 | 1.45e6 | 1.74e6 |
| CG41056 (retired record) | 1 | 1.15e6 | 9.11e5 | 2.44e6 | 1.99e6 |
| AANATL7 (Arylalkylamine N-acetyltransferase-like 7) | 1 | 3.07e5 | 2.64e5 | 2.47e6 | 2.11e6 |
| CG3894 | 1 | 1.78e5 | 2.30e5 | 6.09e5 | 7.67e5 |
| CG3894 | 2 | 80929 | 69741 | 1.90e5 | 2.16e5 |
| CG3894 | 3 | 6.74e5 | 1.05e6 | 1.30e6 | 2.06e6 |
| stai (stathmin) | 1 | 2.39e5 | 1.24e5 | 1.82e6 | 1.52e6 |
| stai (stathmin) | 2 | 7.30e5 | 9.17e5 | 1.46e6 | 1.24e6 |
| stai (stathmin) | 3 | 4.34e5 | 9.16e5 | 8.13e5 | 1.20e6 |
| Ugt35C1 (UDP-glycosyltransferase family 35 member C1) | 1 | 16018 | 19602 | 3.16e5 | 3.68e5 |
| Ugt35C1 (UDP-glycosyltransferase family 35 member C1) | 2 | 3.30e5 | 6.42e5 | 1.02e6 | 1.91e6 |
| Prp38 (pre-mRNA processing factor 38) | 1 | 5.82e5 | 7.23e5 | 8.94e5 | 1.21e6 |
| Prp38 (pre-mRNA processing factor 38) | 2 | 4.56e5 | 4.85e5 | 1.49e6 | 1.16e6 |
